Test results reported in the RNAGym collection of RNA variant scans (doi:10.1126/science.aae0568).
This sample is rich in variants without activity.

B1: tRNA (parent)
chain: GUUCCGUUGGCGUAAUGGUAACGCGUCUCCCUCCUAAGGAGAAGACUGCGGGUUCGAGUCCCGUACGGAACG

Variants of: B1
Test: yeast fitness relative to wild type (ratio to wild type); higher = fitter; tRNA-Arg(CCU), competitive growth, 37 C, YPD
How it was run: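 Amplicons of the tRNA-Arg(CCU) gene were sequenced, 100-nucleotide paired-end, from the start population and from each end population of a pooled yeast competition. The competition, in six parallel replicates, lasted 24 hours in YPD at 37°C. Fitness relative to wild type was calculated from changes in genotype frequencies. Genotypes had to have ≥ 100 starting reads, and estimates < 0.5 were set to 0.5.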

GUUCCGUUGGUGUAAUGGUAACGCGUCUCCUUCCUAAGGAGAAGACUGCGGGUUCGAGUCCCGUACGCAACG [C11U C31U G68C] and GUUCCGUUGGCGUAAUGGUAAGGCGUCUCCCCCCUAGGGAGAAGACUGCGGGCUCGAGUCCCGUACGGAACG [C22G U32C A37G U53C] cannot be ordered by yeast fitness: at most 0.5 for the first, at most 0.5 for the second.

GUUCUGUUGGCGUAAGGGUAACGCGUCUCCCUCUUAAGGGGAGGACUGCGGGUUCGAGUCCAGUACGGAACG [C5U U16G C34U A40G A43G C62A] and GUUCGGUUGAGGUAAGGGUAACGCGUCUCCCUGCUAAGGAGAAGACUGCGGGUUCGAGUCCUGUACGGAACG [C5G G10A C11G U16G C33G C62U] cannot be ordered by yeast fitness: at most 0.5 for the first, at most 0.5 for the second.

GUUGCGUUGGCGUUAUGGUAACGCGUCUCCCUCCUAAGGAGAAGACUGCGGGUUCGAGUCGCGUACGGAACG [C4G A14U C61G] and GUUCCGUAGGCGUAAGGGUAACGCGUCUCCUUCAUAUGGACAAGACUAUGGGUUCGAGUCCCGUACGGAACG [U8A U16G C31U C34A A37U G41C G48A C49U] cannot be ordered by yeast fitness: at most 0.5 for the first, at most 0.5 for the second.

First: GUUGCGUUGGCGUAAUGGUAACGCGUAUCCCUCCUAAGGAGAAGAUUGCGGGUUCGAGUCCCGUACGGAACG [C4G C27A C46U]
Second: GUUCCGUUGGCGUAAUGGUAACGCGUCUUCCUCCUAAGGAGAAGACGGGGGGUUCGAGUCCCGUACGGAACG [C29U U47G C49G]
The yeast fitness of the first is higher: 0.539 for the first, at most 0.5 for the second.

GUUACGUUGGCGUACUGGUAACGCGUCUCCCUCCUAAGGAGAAGACUGCGGGUUCGAGUCCCGUAUGGAACG [C4A A15C C66U] and GUUCCGUUGGCGUAAUGGUAACGCGACUCCCUCCUAAGGAGAAGACAGCGGGUUCGAGUCCCGUAUGGAACG [U26A U47A C66U] cannot be ordered by yeast fitness: at most 0.5 for the first, at most 0.5 for the second.

GUUCCGUUGGCGUAAUGGUAACGCGUCUCCCUCAUAAGGAGAAGACUGCGGGUACGAGUCCCGUACAGAACG [C34A U54A G67A] and GGUCCGUUGGCGUAAUGGUAACGCGUCUCCCUCCUACGGAAAAGACUGUGGGUUCGAGUGCCGUGCGGAACG [U2G A37C G41A C49U C60G A65G] cannot be ordered by yeast fitness: at most 0.5 for the first, at most 0.5 for the second.

GUUUCGAUGGCGUAAUGGUAACGCGUCUCCCCCCUAAGGAGAAGACUGCGGGUUCGAGUCCCGUACGGAACG [C4U U7A U32C] and GUUCCGUUGGCAUAAUGGUAACGCGUCUCCCUUCUCAGGAGAAGACUGCGUGUUCGGGUCCCGUACGGGACG [G12A C33U A36C G51U A57G A69G] cannot be ordered by yeast fitness: at most 0.5 for the first, at most 0.5 for the second.

GUUCCGUUGGCGUAAUGGCCACGAGUCUCCCUCCUAAGGAGAAGACUGCGGGUUCGAGUCUCCUACGGAACG [U19C A20C C24A C61U G63C] and GUUCCGUUGGCGUAAUGGUAACGCGUCUUCUUCCUAAGGAGAAGACUGCGGGUGCGAGUCCCGUUCGGUACG [C29U C31U U54G A65U A69U] cannot be ordered by yeast fitness: at most 0.5 for the first, at most 0.5 for the second.

GUUCCGUCGGCGUAACGGUAACGCGUCUUCCUCCUAACGCGAAGACUGCGGGUUCGAGUCCCGUACGGAACG [U8C U16C C29U G38C A40C] and GUUCCGUUGGCGUAAUGGUACCGCGUCUCCCUCCUAAGGAGAAGACUGCGGGUUCGAGACCCGUUCGGAACG [A21C U59A A65U] cannot be ordered by yeast fitness: at most 0.5 for the first, at most 0.5 for the second.

GGUCCGUUGGCGUAUUGGUAACGGGUCUCCCUCCUAAGGAGAAGACUGCGGGAUCGAGUCCCGAACGGAACG [U2G A15U C24G U53A U64A] and GGUCCGUUGGUGUAAUCGUCACGCGUCUCCCUCCUAAGGAGAAGACUGCGGGUUCGAGUUUCGUACGGAACG [U2G C11U G17C A20C C60U C61U] cannot be ordered by yeast fitness: at most 0.5 for the first, at most 0.5 for the second.

GUUCCGUUGGAGUAAUGGUAACGCGUCUCCCUCCUAAGGAGAAGACUGCGGGUUCGUGCCCCGUACGGAACG [C11A A57U U59C] and GUUCCGUUGGCGUAAUGGUAACGCGUCUCCCUCCUAGGGGGAAGACUGCGGGUUCGAGUCCCGUACGUAACG [A37G A40G G68U] cannot be ordered by yeast fitness: at most 0.5 for the first, at most 0.5 for the second.

GUUCCGUUGGCGUAAUGCUAACGCGUCUCCCUCCUAAGCAGAAGACUGCGGGUUCGAGUCUCGUACGGAACG [G18C G39C C61U] and GUUCCGUUGGUGUACUGGUAACGCGUAUCCCUCCUAAGCAGAAGACUGCGGGUUCGAGUCCCGUACUGAACG [C11U A15C C27A G39C G67U] cannot be ordered by yeast fitness: at most 0.5 for the first, at most 0.5 for the second.

Compared with GUUCCAUUGGCGUAAUGCUAACGCGUCUCCCUCCUGAGGAGAAGACUGCGGGUUCGAGUCCCGUACGGAACG [G6A G18C A36G], GUUCCGUGGGCGUAAUGGUAACGCGUCUCCCUCCUAAGGAGAAGACUGCGGGUUCGAGUCCGGUACGGAACG [U8G C62G] is higher in yeast fitness: at most 0.5 for the first, 0.533 for the second.

GUUCCGUUGGCGUAAUGGUAACGCGUGCCCCUCCUAAGGAGAAGACUGCGGGUUGGAGUCCCGUACGGAACG [C27G U28C C55G] and GUUCCGUUGGCGUUAUGGUAACGCGUCUCCCUCCUAAGGAGAAGACUGCGGAUUCGAGUCCCGUAUGGAACG [A14U G52A C66U] cannot be ordered by yeast fitness: at most 0.5 for the first, at most 0.5 for the second.

GUUCCGUUGGCGCAAUGGUAACGCGUCUCCCUCCUAUGGAGAAGACUGCGGGUUCGAGUCCCGUAUGGAACG [U13C A37U C66U] and GUUCCGUUGGCGAAAUGGUAACGCGUAUCCCUCCUAAGGAGAAGACUGCGGGUUCGAGUCUCGUAUGGAACG [U13A C27A C61U C66U] cannot be ordered by yeast fitness: at most 0.5 for the first, at most 0.5 for the second.

GUUCCGUCGGCGUAAUGGUAACGCGUCUCCGUCCUAAGGAGAAGACUGCGGGAUCGAGUCCCGUACGGAACG [U8C C31G U53A] and GUUCCGUUGGCCUUAUGGUAACGCGACUCCCUCCUAAGGAGAAGACUGCGGGUUCGAAUCACGUACGGAACG [G12C A14U U26A G58A C61A] cannot be ordered by yeast fitness: at most 0.5 for the first, at most 0.5 for the second.

GUUCCGUUGGCAUAAUGGUAACGCGUCUUCCUCCUAAGGAGAAGAGUGCGGGUUCAAGUACGGUAAGGAACG [G12A C29U C46G G56A C60A C62G C66A] and GUUCCGUUGGCGUAAUGGUAACGCGUCUCCCUCCUAAGGAGAAGACUGCGGGUUCGAGACCCGGCCGGAACG [U59A U64G A65C] cannot be ordered by yeast fitness: at most 0.5 for the first, at most 0.5 for the second.

Compared with GUUCCGUCGGCGUAAUGGUUACGCGUCUCCCUACUAAGGAGAAGACUGCGGGUUCGAGUCCCGUAAGGAACG [U8C A20U C33A C66A], GUUGCGUUGGUGUAAUGGUAACGCGUCUCCCUCCUAAGGAGAAGACUGCGGGUUCGAGUCCCGUACGGUACG [C4G C11U A69U] is higher in yeast fitness: at most 0.5 for the first, 0.539 for the second.

With GUUCCGUUGACGUAAUGGUAACGCGUCUCCCUCGUGAGGAGAAGACUGCGGGUUCGAGUGCCGUACGGAACG [G10A C34G A36G C60G] the yeast fitness was at most 0.5.
